Experimental data taken from the supplement of paper PMC12889115.
This is one part of the list. Values are raw readings; no control value is given beside them.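 Primary screen: polymyxin B was added at a level permeabilizing Salmonella outer membranes while sparing inner membranes. DMSO wells, both with and without polymyxin B, established maximum growth. Plate-to-plate variation meant each plate was ranked on its own, and the lowest-OD600 compounds were selected as hits.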

System: Salmonella enterica serovar Typhimurium SL1344
Experiment: bacterial growth OD600 after 18 h with compound and polymyxin B; higher = more bacterial growth (less inhibition)
Settings: 50 µM, Mueller-Hinton broth

Row | SMILES | bacterial growth OD600 (polymyxin B 0.75 µg/mL) | bacterial growth OD600 (polymyxin B 1 µg/mL)
1 | COc1ccc(N2C(=O)CN(C(=O)c3ccoc3C)CC23CCCC3)cc1 | 0.788 | 
2 | COc1cc(C(=O)N2CCCC(Nc3ccc(F)c(F)c3)C2)ccc1C (stereo not drawn) |  | 0.572
3 | COCCN1CCC(CN(CC2CCCO2)C(=O)Cc2cc(OC)ccc2OC)CC1 (stereo not drawn) |  | 0.89
4 | CC(Cc1cccs1)NC(=O)Cn1cc(NC(=O)CCOc2ccccc2)cn1 (stereo not drawn) | 0.799 | 
5 | COc1cc(CNCc2cccnc2Oc2ccccc2C)cc2c1OCO2 |  | 0.871
6 | OCC1(CCc2ccccc2)CCCN(Cc2cccc3cccnc23)C1 (stereo not drawn) | 0.76 | 
7 | C=CCN(CC=C)C(=O)c1ccc(OC2CCN(S(=O)(=O)N(C)C)CC2)cc1 |  | 0.881
8 | COc1ccc2c(c1)C=C(CNCc1cccnc1N1CCN(C(C)=O)CC1)CO2 | 0.826 | 
9 | O=C(CC1c2ccccc2CCc2ccccc21)N1CCCC1c1nccs1 (stereo not drawn) | 0.006 | 
10 | CC(C)CC(=O)Nc1ccnn1C1CCN(Cc2ccc3cccc(F)c3n2)CC1 | 0.786 | 
11 | O=C(C1CCOCC1)N1CCCC(CCc2cccc(C(F)(F)F)c2)C1 (stereo not drawn) | 0.355 | 
12 | O=C(NC1CC(=O)N(Cc2cccc(F)c2)C1)c1ccncc1 (stereo not drawn) |  | 1.12
13 | CC1(C)Cc2c(cnn2-c2ccccc2)C(NC(=O)c2ccncc2)C1 (stereo not drawn) | 0.778 | 
14 | CSc1ncc(CNCc2cccnc2Oc2ccc(F)cc2F)cn1 |  | 1.29
15 | Cc1nc(N2CCCC(NCc3ccccc3)CC2)nc2ccc(F)cc12 (stereo not drawn) | 0.792 | 
16 | Cn1cc(CN2CCOC(CCCc3ccccc3)C2)cn1 (stereo not drawn) | 0.796 | 
17 | O=C(Nc1ccnn1C1CCN(C(=O)CCc2c[nH]c3ccccc23)CC1)C1CC1 | 0.863 | 

In another format: entries from further up
Row,SMILES,bacterial growth OD600 (polymyxin B 0.75 µg/mL),bacterial growth OD600 (polymyxin B 1 µg/mL)
4,CC(Cc1cccs1)NC(=O)Cn1cc(NC(=O)CCOc2ccccc2)cn1 (stereo not drawn),0.799,
7,C=CCN(CC=C)C(=O)c1ccc(OC2CCN(S(=O)(=O)N(C)C)CC2)cc1,,0.881
9,O=C(CC1c2ccccc2CCc2ccccc21)N1CCCC1c1nccs1 (stereo not drawn),0.006,

Continuation.

Row | SMILES | bacterial growth OD600 (polymyxin B 0.75 µg/mL) | bacterial growth OD600 (polymyxin B 1 µg/mL)
18 | O=C(c1csc2nc(-c3ccccc3)cn12)N1CCOCC1 |  | 1.15
19 | COc1cccc(C2(CC(=O)N(C)Cc3nc4ccccc4s3)CC(=O)N(C3CCCC3)C2=O)c1 (stereo not drawn) | 0 | 
20 | COc1ccc(CCN2CC(NC(=O)c3cccnc3)CC2=O)cc1 (stereo not drawn) |  | 0.891
21 | O=C(NCC1CC(Cc2ccc(F)cc2)=NO1)c1n[nH]c2c1CCC2 (stereo not drawn) | 0.771 | 
22 | COC(=O)c1ccc(CN2CCC(C(Cc3ccccc3Cl)N(C)C(=O)c3ccco3)CC2)cc1 (stereo not drawn) | 0.006 | 
23 | COCc1ccc(CNCc2cccnc2N2CCN(c3ccccn3)CC2)o1 |  | 0.845
24 | COc1ccccc1OCc1cc(C(=O)N2CCCN(c3ncccn3)CC2)n[nH]1 |  | 0.948
25 | COC(=O)CN(C)C(=O)c1coc(COc2ccccc2)n1 | 0.784 | 
26 | CCOC(=O)C1(Cc2cccc(F)c2)CCN(Cc2ccc(OC)c(O)c2)CC1 |  | 0.87
27 | O=C(NCc1cccnc1Oc1ccccc1)c1ccncc1 | 0.831 | 
28 | O=C(NCC1CCC2(CCN(Cc3ccc(-c4ccc(Cl)cc4)o3)CC2)O1)C1CCOCC1 (stereo not drawn) | 0.004 | 
29 | CCOc1ccccc1CN1CCN(Cc2cn(CC)nc2C)CC1CCO (stereo not drawn) |  | 0.834
30 | COCCN(C(=O)c1ccc(OC2CCN(S(=O)(=O)N(C)C)CC2)cc1)C(C)C |  | 1
31 | OC1CCN([C@@H]2CCN(Cc3c[nH]nc3-c3ccc(Cl)cc3)C[C@H]2O)CC1 |  | 0.457
32 | O=C(NCC1(O)CCCCC1)c1csc2nc(-c3ccccc3)cn12 |  | 1.03
33 | CC(C)c1ccc(NC2CCCN(C(=O)c3ccc(N4CC(=O)NC4=O)cc3)C2)cc1 (stereo not drawn) |  | 1.01
